According to the supplement of paper PMC7024190:
Counter-ions that a name gives are not always drawn. The list shows a part of the results. This data set is noisy: repeats of one test often differ as much as different tests do.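 A first-round screen of about ten thousand compounds sought those raising reporter output, using human embryonic kidney cells briefly transfected with a plasmid carrying a Renilla luciferase gene driven by the HSV-TK promoter.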

Tested on: HEK 293FT
Test: log relative Renilla luciferase luminescence (reporter expression vs reference, reference not stated) (log (base not stated)); higher = higher recombinant reporter expression
Settings: 10 µM; time after transfection 48 h

Q: `CN1CCN(c2c(F)cc3c(=O)c(C(=O)O)cn4c3c2SCC4)CC1` [rufloxacin hydrochloride] was tested. Which log did it give?
A: 0.0757

Q: How did the log turn out when `COC(=O)C1=C(C)NC(C)=C(C(=O)OCC(C)C)C1c1ccccc1[N+](=O)[O-]` (stereo not given) [nisoldipine] was run?
A: 0.153

Q: Which log does the source give for `O=C1CCc2ccc(OCCCCN3CCN(c4cccc(Cl)c4Cl)CC3)cc2N1` [aripiprazole] here?
A: -0.0569

Q: With `CN(C)CCOC(c1ccc(Cl)cc1)c1ccccn1` (stereo not given) [carbinoxamine maleate] as the compound, how does the log read?
A: -0.187

Q: For `NC(=O)NC1NC(=O)NC1=O` (stereo not given) [allantoin], which log is on record?
A: -0.177

Q: With `C[C@@H]1CC[C@@]23CCC4(C)[C@@](C=CC5[C@@]6(C)CCC(=O)C(C)(C)C6CC[C@]54C)(OC2=O)C3[C@H]1C` (stereo not given in full) [3-oxoursan (28-13)olide] as the compound, how does the log read?
A: -0.0232

Q: For `COc1c2ccoc2cc2oc(=O)ccc12` [bergapten], which log is on record?
A: 0.00202

Q: How did the log turn out when `O=C1C(O)=C([C@H]2CC[C@H](c3ccc(Cl)cc3)CC2)C(=O)c2ccccc21` [atovaquone] was run?
A: -0.153

Q: With `Cc1ccccc1C(OCCN(C)C)c1ccccc1` (stereo not given) [orphenadrine citrate] as the compound, how does the log read?
A: -0.107

Q: With `CCN(CC)CCNC(=O)COc1ccc(OC)cc1` [mefexamide hydrochloride] as the compound, how does the log read?
A: -0.0648

Q: How did the log turn out when `Cc1nc2n(c(=O)c1CCN1CCC(c3noc4cc(F)ccc34)CC1)CCCC2O` (stereo not given) [paliperidone] was run?
A: -0.544

Q: With `CC(=O)OCC1=C(C(=O)O)N2C(=O)[C@@H](NC(=O)Cc3cccs3)[C@H]2SC1` [cephalothin sodium] as the compound, how does the log read?
A: -0.0535

Q: With `CCOc1ccc(NC(=O)CC(C)O)cc1` (stereo not given) [bucetin] as the compound, how does the log read?
A: 0.102

Q: With `COc1c(O)cc2oc3cc(O)c(CC=C(C)C)c(O)c3c(=O)c2c1CC=C(C)C` [alpha-mangostin] as the compound, how does the log read?
A: -1.47

Q: For `C=CCCCCCCCCC(=O)O` [undecylenic acid], which log is on record?
A: 0.0621

Q: Which log does the source give for `COC(=O)C[C@H]1C(C)(C)[C@@H](OC(C)=O)[C@@H]2CC3C4CC(=O)O[C@@H](c5ccoc5)[C@]4(C)CCC3[C@@]1(C)C2=O` (stereo not given in full) [dihydrofissinolide] here?
A: 0.00801

Q: With `CC1(C)S[C@@H]2[C@H](NC(=O)Cc3ccccc3)C(=O)N2[C@H]1C(=O)O` [penicillin g potassium] as the compound, how does the log read?
A: -0.172

Q: With `CCCCc1nc(Cl)c(CO)n1Cc1ccc(-c2ccccc2-c2nnn[nH]2)cc1` [losartan] as the compound, how does the log read?
A: -0.0157

Q: How did the log turn out when `O=C1CCC(N2C(=O)c3ccccc3C2=O)C(=O)N1` (stereo not given) [thalidomide] was run?
A: 0.149

Q: Which log does the source give for `CC1(C)C[C@@H]2C(=O)CC[C@H]3O[C@]3(C)CC[C@H]21` [kobusone] here?
A: 0.00486

Q: With `CC[n+]1c(-c2ccccc2)c2cc(N)ccc2c2ccc(N)cc21` [homidium bromide] as the compound, how does the log read?
A: 0.182

Q: For `O=C1OC(CN2CCOCC2)CN1/N=C/c1ccc([N+](=O)[O-])o1` (stereo not given) [furaltadone], which log is on record?
A: -0.147

Q: For `CNCCCN1c2ccccc2CCc2ccccc21` [desipramine hydrochloride], which log is on record?
A: 0.0238

Q: `O=C(O)[C@]1(O)C[C@@H](O)[C@@H](O)[C@H](O)C1` [quinic acid] was tested. Which log did it give?
A: 0.116

Q: Which log does the source give for `O=C(O)CCNC(=O)c1ccc(/N=N/c2ccc(O)c(C(=O)O)c2)cc1` [balsalazide disodium] here?
A: 0.0257

Q: For `C[n+]1ccccc1/C=N/O` [pralidoxime chloride], which log is on record?
A: 0.0658

Q: With `CCC(C)n1ncn(-c2ccc(N3CCN(c4ccc(OCC5COC(Cn6cncn6)(c6ccc(Cl)cc6Cl)O5)cc4)CC3)cc2)c1=O` (stereo not given) [itraconazole] as the compound, how does the log read?
A: -0.196

Q: With `COc1ccc(/C=C/C(=O)c2cc(O)ccc2O)cc1` [2',5'-dihydroxy-4-methoxychalcone] as the compound, how does the log read?
A: -0.0152

Q: `Cc1cccc(Nc2ccccc2C(=O)O)c1C` [mefenamic acid] was tested. Which log did it give?
A: -0.0732

Q: With `C=CCSCC=C` [diallyl sulfide] as the compound, how does the log read?
A: -0.0856

Q: Which log does the source give for `CC(N)C(=O)OC(C)(C)Cc1ccc(Cl)cc1` (stereo not given) [alaproclate] here?
A: 0.193

Q: Which log does the source give for `C[C@H]1[C@H](OC(=O)CCC(=O)O)O[C@@H]2O[C@@]3(C)CC[C@H]4[C@H](C)CC[C@@H]1[C@@]24OO3` [artesunate] here?
A: -0.0202

Q: How did the log turn out when `CC(C)NCC(O)c1cc(O)cc(O)c1` (stereo not given) [metaproterenol] was run?
A: -0.173

Q: How did the log turn out when `O=C(O)CN(CCN(CC(=O)O)CC(=O)O)CCN(CC(=O)O)CC(=O)O` [pentetic acid] was run?
A: 0.0948

Q: Which log does the source give for `COc1ccc(-c2cc(=O)c3c(OC)c(OC)c(OC)cc3o2)cc1OC` [sinensetin] here?
A: 0.247

Q: How did the log turn out when `C#CCN(C)CCCOc1ccc(Cl)cc1Cl` [clorgiline hydrochloride] was run?
A: 0.0674

Q: For `COc1ccc2c(c1)O[C@H]1c3ccc(OC)cc3OC[C@@H]21` [homopterocarpin], which log is on record?
A: 0.0475

Q: For `COc1ccccc1N1CCN(CCCNc2cc(=O)n(C)c(=O)n2C)CC1` [urapidil hydrochloride], which log is on record?
A: 0.0962

Q: Which log does the source give for `CC(C)CCCC(C)C1CCC2C3CCC4CC(O)CCC4(C)C3CCC12C` (stereo not drawn) [5alpha-cholestanol] here?
A: 0.174

Q: Which log does the source give for `OC[C@H]1O[C@@](CO)(O[C@H]2O[C@H](CO)[C@@H](O)[C@H](O)[C@H]2O)[C@@H](O[C@H]2O[C@H](CO)[C@@H](O)[C@H](O)[C@H]2O)[C@@H]1O` [melezitose] here?
A: -0.101

Q: With `O=C(/C=C/C=C/c1ccc2c(c1)OCO2)N1CCCCC1` [piperine] as the compound, how does the log read?
A: 0.104

Q: For `CCC(=O)OCC(=O)[C@@]1(OC(=O)CC)[C@@H](C)C[C@H]2[C@@H]3CCC4=CC(=O)C=C[C@]4(C)[C@@]3(Cl)[C@@H](O)C[C@@]21C` [beclomethasone dipropionate], which log is on record?
A: -0.0398

Q: How did the log turn out when `COc1ccc(-c2cc(=O)c3c(O)cc(OC)cc3o2)cc1` [apigenin dimethyl ether] was run?
A: -0.147

Q: `CCN(CC)Cc1cc(Nc2ccnc3cc(Cl)ccc23)ccc1O` [amodiaquine dihydrochloride] was tested. Which log did it give?
A: -0.0185

Q: How did the log turn out when `CC(=O)OCC[N+](C)(C)C` [acetylcholine chloride] was run?
A: -0.00743

Q: How did the log turn out when `CC(=O)Oc1ccc(O)cc1` [4-acetoxyphenol] was run?
A: -0.255

Q: How did the log turn out when `OCCN1C[C@H](O)[C@@H](O)[C@H](O)[C@H]1CO` [miglitol] was run?
A: -0.0451

Q: For `CC(=O)O[C@H]1C[C@@H](OC(C)=O)C(C)(C)C2CC(=O)[C@]3(C)C(CC[C@@]4(C)[C@H](c5ccoc5)OC(=O)[C@H]5O[C@]543)[C@]21C` (stereo not given in full) [7-deacetoxy-7-oxokhivorin], which log is on record?
A: 0.256

Q: `O=C(O)c1nc2cc(Cl)c(Cl)cc2nc1O` [6,7-dichloro-3-hydroxy-2-quinoxalinecarboxylic acid] was tested. Which log did it give?
A: 0.102

Q: Which log does the source give for `Cn1cnc([N+](=O)[O-])c1Sc1ncnc2[nH]cnc12` [azathioprine] here?
A: -0.143

Q: How did the log turn out when `CC(=O)Oc1cc2c(s1)CCN(C(C(=O)C1CC1)c1ccccc1F)C2` (stereo not given) [prasugrel] was run?
A: 0.0492

Q: Which log does the source give for `CC(C)C(=O)Nc1ccc([N+](=O)[O-])c(C(F)(F)F)c1` [flutamide] here?
A: 0.0391

Q: `O=C(O)CCCC[C@@H]1SC[C@@H]2NC(=O)N[C@@H]21` [biotin] was tested. Which log did it give?
A: 0.0616

Q: With `CN1CCN(c2cc3c(cc2F)c(=O)c(C(=O)O)cn3-c2ccc(F)cc2)CC1` [difloxacin hydrochloride] as the compound, how does the log read?
A: 0.198

Q: `C[C@@]1(O)CCOC(=O)C1` [mevalonic acid lactone] was tested. Which log did it give?
A: -0.257

Q: Which log does the source give for `CC1COc2c(N3CCN(C)CC3)c(F)cc3c(=O)c(C(=O)O)cn1c23` (stereo not given) [ofloxacin] here?
A: 0.0223

Q: `C[C@H](CCC(=O)O)[C@H]1CC[C@H]2[C@@H]3CC[C@@H]4C[C@H](O)CC[C@]4(C)[C@H]3CC[C@]12C` [lithocholic acid] was tested. Which log did it give?
A: 0.0426

Q: With `CC(=O)SCC(Cc1ccccc1)C(=O)NCC(=O)OCc1ccccc1` (stereo not given) [racecadotril] as the compound, how does the log read?
A: 0.119

Q: How did the log turn out when `COC(=O)C1=C(C)NC(C)=C(C(=O)OC(C)C)C1c1cccc2nonc12` (stereo not given) [isradipine] was run?
A: 0.0363

Q: For `CN1CCC(OC(c2ccccc2)c2ccccc2)CC1` [diphenylpyraline hydrochloride], which log is on record?
A: -0.187

Q: Which log does the source give for `COc1cccc(-c2cc(=O)c3ccc(OC)cc3o2)c1` [7,3'-dimethoxyflavone] here?
A: 0.113

Q: Which log does the source give for `O=C(Oc1cccc2cccnc12)c1ccccc1` [benzoxiquine] here?
A: 0.074

Q: With `C/C=C1\[C@H]2C=C(C)C[C@]1(N)c1ccc(=O)[nH]c1C2` [huperzine a] as the compound, how does the log read?
A: 0.0025

Q: `C[N+](C)(C)CCO.[Cl-]` [choline chloride] was tested. Which log did it give?
A: 0.0267

Q: With `Cc1cc(O)c2c(c1)C(=O)c1cc(O)cc(O)c1C2=O` [emodin] as the compound, how does the log read?
A: 0.0932

Q: For `CN(C/C=C/C#CC(C)(C)C)Cc1cccc2ccccc12` [terbinafine hydrochloride], which log is on record?
A: 0.13

Q: With `Nc1nc(O)c2ncn(CCC(CO)CO)c2n1` [penciclovir] as the compound, how does the log read?
A: -0.0202

Q: `Fc1ccc([C@@H]2CCNC[C@H]2COc2ccc3c(c2)OCO3)cc1` [paroxetine hydrochloride] was tested. Which log did it give?
A: 0.148

Q: With `C=C1CCC2C(CC2(C)C)C(=O)CCC1O` (stereo not given) [isokobusone] as the compound, how does the log read?
A: 0.14

Q: `NC(CO)C(=O)NNCc1ccc(O)c(O)c1O` (stereo not given) [benserazide hydrochloride] was tested. Which log did it give?
A: -0.0766

Q: Which log does the source give for `CN(C)CCCN1c2ccccc2CCc2ccccc21` [imipramine hydrochloride] here?
A: 0.192

Q: `C[C@H]1COc2c(N3CCN(C)CC3)c(F)cc3c(=O)c(C(=O)O)cn1c23` [levofloxacin] was tested. Which log did it give?
A: -0.0214

Q: `NCCC[C@H](N)CC(=O)N[C@H]1CNC(=O)[C@H]([C@H]2C[C@H](O)NC(N)=N2)NC(=O)/C(=C/NC(N)=O)NC(=O)[C@H](CO)NC(=O)[C@H](CO)NC1=O` [viomycin sulfate] was tested. Which log did it give?
A: 0.0936

Q: How did the log turn out when `NCC[C@H](O)C(=O)N[C@@H]1C[C@H](N)[C@@H](O[C@H]2O[C@H](CN)[C@@H](O)[C@H](O)[C@H]2O)[C@H](O)[C@H]1O[C@H]1O[C@H](CO)[C@@H](O)[C@H](N)[C@H]1O` [amikacin sulfate] was run?
A: -0.106

Q: Which log does the source give for `COc1ccc2c(c1)OC[C@@H](Cc1ccc(OC)c(OC)c1)[C@H]2O` [tetrahydrosappanone a trimethyl ether] here?
A: -0.00674
